{
  "source": "PubChem BioAssay AID651640",
  "about": "(Broad Institute, 2012)",
  "note": "Out of some 350,000 compounds screened, about 6,000 (1.7%) were called active. This list was built around the results that the source calls inconclusive (neither active nor inactive); the mix of calls is not that of the screen. No stated cut-off is given here; in the data, active means CPE inhibition above about 20% (passing the limit was not always enough); inconclusive means no clear call, values can overlap the other calls; tested in BHK-21 cells.",
  "data": [
    {"assay": "protection of cells from dengue 2 killing – plate reader, single concentration, primary screen (AID 651640);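 further: 0% = median of neutral control wells and 100% = median of positive control wells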", "conditions": "DENV2-infected cells, cytopathic effect rescue, at 9.99 µM, active compounds read high", "values": [
      {"smiles": "O=c1cc(-c2ccc(O)cc2)oc2cc(O)c(C3OC(CO)C(O)C(O)C3O)c(O)c12", "note": "(stereo not given)", "CPE inhibition": "inconclusive: 80.9%"},
      {"smiles": "CO[C@@H]1CN(C)C(=O)c2cc(NC(=O)C3CC3)ccc2OC[C@H](C)N(CC2CC2)C[C@H]1C", "CPE inhibition": "inconclusive: 24.9%"},
      {"smiles": "COC(=O)N(C)C[C@@H]1OCc2cnnn2CCCC(=O)N([C@H](C)CO)C[C@@H]1C", "CPE inhibition": "inconclusive: 44.5%"},
      {"smiles": "CN(C)CCCNC(=O)c1cccc(-c2ccc3nncn3c2)c1", "CPE inhibition": "inconclusive: 27.6%"},
      {"smiles": "COc1ccc(-c2sc(Nc3ccccc3)n[n+]2-c2ccc(F)cc2)cc1Br", "CPE inhibition": "inconclusive: 28.8%"},
      {"smiles": "CO[C@H]1CN(C)C(=O)c2cc(NC(=O)c3ccccc3F)ccc2OC[C@@H](C)N(C(C)=O)C[C@@H]1C", "CPE inhibition": "active: 69.8%"},
      {"smiles": "CN(C)CC#Cc1ccc([C@H]2[C@@H](CO)N3CCCCN(CC4CC4)C[C@H]23)cc1", "CPE inhibition": "inactive: -6.35%"},
      {"smiles": "COc1ccc(-c2cn(CC[C@@H]3CC[C@H](NC(=O)Nc4ccc(F)cc4)[C@@H](CO)O3)nn2)cc1", "CPE inhibition": "active: 49.7%"},
      {"smiles": "CN(C)C1(CNC(=O)C2CCC(=O)N(Cc3ccc(Cl)cc3)C2)CCCCC1", "note": "(stereo not given)", "CPE inhibition": "inconclusive: 20.5%"},
      {"smiles": "Cc1ccc(N2CC(C)Cn3c2nc2c3c(=O)[nH]c(=O)n2C)cc1C", "note": "(stereo not given)", "CPE inhibition": "inconclusive: 28.4%"},
      {"smiles": "Cn1nc(N2CCN(S(=O)(=O)c3ccccc3)CC2)c(=O)n(C)c1=O", "CPE inhibition": "inconclusive: 29.2%"},
      {"smiles": "NC(=O)c1ccsc1NC(=O)CSc1nnc2ccccn12", "CPE inhibition": "inconclusive: 20.9%"},
      {"smiles": "CCC(=O)N1CC2(C1)[C@@H](c1ccccc1)[C@@H](CO)N2Cc1cc(F)ccc1F", "CPE inhibition": "inactive: -9.75%"},
      {"smiles": "C[C@@H]1CN([C@H](C)CO)C(=O)c2cc(NC(=O)Nc3ccccc3)ccc2O[C@H]1CN(C)C(=O)Nc1ccc(F)cc1", "CPE inhibition": "inconclusive: 27.6%"},
      {"smiles": "CN1C(C(=O)N2CCc3ccccc3C2)=CC(c2ccc(F)cc2)=NS1(=O)=O", "CPE inhibition": "inconclusive: 22.5%"},
      {"smiles": "COc1cc(NC(=O)CCc2nnc3ccc(N4CCC(C)CC4)nn23)cc(OC)c1", "CPE inhibition": "inconclusive: 23.2%"},
      {"smiles": "Cc1c(OCC(=O)N2CCC(C(N)=O)CC2)ccc2c3c(c(=O)oc12)CCCC3", "CPE inhibition": "inconclusive: 22.1%"},
      {"smiles": "O=C(CCC(=O)N1CCN(S(=O)(=O)c2ccc(Cl)cc2)CC1)Nc1ccc(Cl)cc1Cl", "CPE inhibition": "inactive: -7.9%"},
      {"smiles": "CCCCCCC(=O)N/N=C1\\CCCc2ccccc21", "CPE inhibition": "inconclusive: 26.8%"},
      {"smiles": "C[C@@H]1CN([C@H](C)CO)C(=O)c2cc(NC(=O)Nc3cccc4ccccc34)ccc2O[C@@H]1CN(C)CC1CCCCC1", "CPE inhibition": "inconclusive: 21.2%"},
      {"smiles": "COc1cccc(-c2ccc([C@H]3[C@H]4CNCC(=O)N4[C@H]3CO)cc2)c1", "CPE inhibition": "active: 22.1%"},
      {"smiles": "CCOc1cc(C)c(S(=O)(=O)NCc2ccccn2)cc1C", "CPE inhibition": "inconclusive: 26%"},
      {"smiles": "CC1=CC(=O)C=CC1=Nc1ccc(N(C)C)cc1", "CPE inhibition": "inconclusive: 29.9%"},
      {"smiles": "C[C@H]1CN([C@@H](C)CO)C(=O)c2cc(-c3ccncc3)cnc2O[C@@H]1CN(C)C(=O)CN1CCOCC1", "CPE inhibition": "inactive: -0.418%"},
      {"smiles": "CCC(=O)N1CCC1(C)C(=O)Nc1ccc(OC(F)F)cc1", "note": "(stereo not given)", "CPE inhibition": "inconclusive: 24.1%"},
      {"smiles": "O=C(NCCCN1CCOCC1)C1CCC(=O)N1CCc1ccccc1", "note": "(stereo not given)", "CPE inhibition": "active: 28.6%"},
      {"smiles": "O=C(CCn1c(=S)[nH]c2ccccc2c1=O)Nc1ccc(F)cc1", "CPE inhibition": "inconclusive: 34.2%"},
      {"smiles": "COc1ccc(CN(C)C[C@H]2OCCCC[C@@H](C)Oc3ccc(NS(=O)(=O)c4ccccc4)cc3C(=O)N([C@@H](C)CO)C[C@@H]2C)cc1", "CPE inhibition": "inconclusive: 57.2%"},
      {"smiles": "C[C@H]1CN([C@@H](C)CO)C(=O)c2cc(Br)cnc2O[C@H]1CN(C)Cc1ccncc1", "CPE inhibition": "inactive: 4.85%"},
      {"smiles": "CC1CCCN(C(=O)COC(=O)c2ccc3[nH]c4c(c3c2)CCCC4)C1", "note": "(stereo not given)", "CPE inhibition": "inconclusive: 45.1%"},
      {"smiles": "O=C(CSc1nc2c(oc3ccccc32)c(=O)n1CC1CCCO1)NCc1ccccc1", "note": "(stereo not given)", "CPE inhibition": "active: 71.9%"},
      {"smiles": "Cc1cc(NC(=O)CSCC(=O)OCC(=O)c2cccc(Br)c2)no1", "CPE inhibition": "inconclusive: 87.4%"},
      {"smiles": "CC(=O)N1CCN(C(=O)c2ccc3c(c2)S(=O)(=O)c2ccccc2C3=O)CC1", "CPE inhibition": "inactive: 0.481%"},
      {"smiles": "C[C@@H]1CN([C@@H](C)CO)C(=O)Cc2cc(NC(=O)CCN3CCOCC3)ccc2O[C@H]1CN(C)Cc1ccc(-c2ccccc2)cc1", "CPE inhibition": "active: 32.2%"},
      {"smiles": "O=S(=O)(CCN1CCSCC1)c1ccccc1", "CPE inhibition": "inconclusive: 38.2%"},
      {"smiles": "COC(=O)C1=C(C)N(Cc2ccccc2)C(=S)N[C@H]1c1ccccc1", "CPE inhibition": "inactive: -10.9%"},
      {"smiles": "O=C(CN(C1CCCCC1)S(=O)(=O)c1ccc(Br)cc1)NCc1cccnc1", "CPE inhibition": "inconclusive: 20.2%"},
      {"smiles": "CSc1ccccc1C(=O)C1CCCN(Cc2c(C)n(C)n(-c3ccccc3)c2=O)C1", "note": "(stereo not given)", "CPE inhibition": "inactive: 0.82%"},
      {"smiles": "COc1ccc(S(=O)(=O)NCC(=O)NCc2cc(=O)n(C)c(=O)n2C)cc1", "CPE inhibition": "active: 56.7%"},
      {"smiles": "COc1cc(-c2ccc3c(=O)c4ccccc4n(C)c3c2)cc(OC)c1OC", "CPE inhibition": "inactive: -10.7%"},
      {"smiles": "C[C@H]1CN([C@@H](C)CO)C(=O)c2cc(NC(=O)Cc3cn(C)c4ccccc34)ccc2O[C@H]1CN(C)Cc1ccc(C(=O)O)cc1", "CPE inhibition": "inactive: -11.5%"},
      {"smiles": "CCN1CCc2c(sc(NC(=O)c3ccc(S(=O)(=O)N4CCCCCC4)cc3)c2C(=O)NC)C1", "CPE inhibition": "inconclusive: 25%"},
      {"smiles": "CN(C)CCCNC(=O)OC1CC2CC1[C@H]1CCCCN1C2=O", "note": "(stereo not given in full)", "CPE inhibition": "active: 47.7%"},
      {"smiles": "CC(C)(C)C(=O)O/N=C(\\N)c1ccc(Br)cc1", "CPE inhibition": "inconclusive: 49.5%"},
      {"smiles": "C/C(=N\\NC(=O)c1cc(-c2ccc(Br)s2)[nH]n1)c1ccncc1", "CPE inhibition": "inconclusive: 22.8%"},
      {"smiles": "CC(/C=C/c1ccco1)=N/NC(=O)OC(C)(C)C", "CPE inhibition": "inactive: -0.443%"},
      {"smiles": "Cc1cccc(S(=O)(=O)N2CCCCN3[C@@H](CO)[C@@H](c4ccc(-c5ccncc5)cc4)[C@@H]3C2)c1", "CPE inhibition": "inactive: 5.29%"},
      {"smiles": "O=C(N[C@H]1CC[C@H](CCNS(=O)(=O)c2ccccc2)O[C@@H]1CO)c1cnccn1", "CPE inhibition": "inactive: 10.7%"},
      {"smiles": "OC[C@@H]1CN(CCN2CCOCC2)C[C@H](n2cnc3c(NC4CC4)ncnc32)O1", "CPE inhibition": "inconclusive: 38.8%"},
      {"smiles": "CCn1c(Oc2cccc(Br)c2)nc2c1c(=O)n(C)c(=O)n2C", "CPE inhibition": "inconclusive: 56.6%"}
    ]}
  ]
}
